Measured values reported in patent publication US6413750B1, “(R)-specific alcohol dehydrogenases from lactobacillus with improved catalytic activity using an NAD+ substrate” (Forschungszentrum Jülich GmbH, priority 1998, dated 2002).

Experiment: pH optimum of enzyme activity
Format: biochemical, Lactobacillus brevis
Description: For determining the optimal pH value, the following buffers were used: pH 4.5=Na-acetate; pH 5.0 and 5.5=Na-acetate; pH 6.0 and 6.5=Kpi or MES; pH 7.0 and 7.5=Kpi or TEA; pH 8.0 and 8.6=Tris; pH 9.0=Bicine. All buffers were used in a concentration of 100 mM. For the determination of the reductive reaction 10 mM acetophenon was added. The concentrations of NADP/NAD were each 2 mM. The concentration of NADH/NADPH was each 0.25 mM. For measurement, 970 μl of the respective buffer solution, which already included substrate at the desired concentration, was mixed with 20 μl of the start solution with the desired co-enzyme. The reaction was started with 10 μl enzyme. the dilution factor depended on the activity, it was chosen in the range of 1 to 3 U/ml.

[1] = oxidation of phenylethanol with NADP+
[2] = reduction of acetophenone with NADH
[3] = reduction of acetophenone with NADPH

Substance	pH optimum [1]	pH optimum (oxidation with NAD+)	pH optimum [2]	pH optimum [3]
mutant 1/1: L. brevis ADH mutant with exchanges A9G, R38L, K45M (SEQ ID NO 17) (SNRLDGKVGIITGGTLGIGLAIATKFVEEGAKVMITGLHSDVGEMAAKSV; OTHER INFORMATION: mutant 1/1)	7.0	7.5	6.0	6.0
mutant 2/2: L. brevis ADH mutant with exchanges A9G, R38L, H39L, K48M (SEQ ID NO 19) (SNRLDGKVGIITGGTLGIGLAIATKFVEEGAKVMITGLLSDVGEKAAMSV; OTHER INFORMATION: mutant 2/2)	7.5	7.5	5.0	6.0
